# Earlier results as cited in publication PMC12399788, “A Comparison of the Molecular Pharmacological Properties of Current Short, Long, and Ultra‐Long‐Acting β2‐Agonists Used for Asthma and COPD” (Pharmacology Research & Perspectives, 2025).
# Tested on: human lung (mast cells)
# Settings: histamine release from human lung (mast cells)
smiles,measurement,value
"COc1ccc(CC(C)NCC(O)c2ccc(O)c(NC=O)c2)cc1 (stereo not shown) [Formoterol, formoterol]",time by which response was lost,≤ 8 h
